These are yes or no findings as the source states them, for the method shown.
Target: Δ123 monomer (hepatitis C virus genotype 1a, H77c) (UniProt P27958)
Test: SEC; analytical SEC of the pooled and concentrated monomeric fractions, Superdex 200 10/300; both purified

Δ123 monomer (from UniProt P27958 409-460; P27958 486-569; P27958 581-661) (domain or fragment)
binding: no binding

From article PMC7247312
